Drawing on article doi:10.1101/316935, this text covers binding for one substance.

Protein sequences, listed by entry. Tags and fused reporters are not part of them. Lines headed by an entry give the natural chain unless they say otherwise; changes in a name come on top.
UniProt O94992: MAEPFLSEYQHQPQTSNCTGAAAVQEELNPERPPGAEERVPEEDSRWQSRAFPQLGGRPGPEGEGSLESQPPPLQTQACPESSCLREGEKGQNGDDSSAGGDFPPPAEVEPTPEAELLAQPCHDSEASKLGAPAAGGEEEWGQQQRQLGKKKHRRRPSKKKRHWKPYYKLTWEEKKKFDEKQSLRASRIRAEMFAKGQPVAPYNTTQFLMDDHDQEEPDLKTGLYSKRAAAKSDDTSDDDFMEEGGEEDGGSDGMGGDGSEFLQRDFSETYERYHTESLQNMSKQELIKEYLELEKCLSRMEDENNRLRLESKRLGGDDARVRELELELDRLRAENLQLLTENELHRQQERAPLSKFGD
UniProt P50750: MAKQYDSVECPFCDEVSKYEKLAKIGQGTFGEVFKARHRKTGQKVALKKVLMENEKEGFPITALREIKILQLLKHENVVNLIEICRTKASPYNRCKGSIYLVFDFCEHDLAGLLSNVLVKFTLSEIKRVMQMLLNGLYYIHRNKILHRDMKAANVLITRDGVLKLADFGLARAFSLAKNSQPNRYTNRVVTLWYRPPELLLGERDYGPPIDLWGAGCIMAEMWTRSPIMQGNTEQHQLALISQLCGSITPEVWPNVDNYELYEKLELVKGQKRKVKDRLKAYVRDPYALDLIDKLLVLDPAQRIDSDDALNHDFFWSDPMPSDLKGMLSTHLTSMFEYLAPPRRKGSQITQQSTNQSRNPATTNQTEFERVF

The target in the assay is HEXIM1 (human (endogenous in MRC5)) (UniProt O94992). The assay is described as follows: co-IP.

Results are given in words; binding and its absence hold for the method and conditions named. Binding seen in cells or lysates may run through a third protein. Some results given as binding are weak or reduced against the parent protein; the word gives no strength.

With “CDK9/CyclinT1 (from UniProt P50750 1-372; O60563 1-726) (complex)”, the binding entry is on record as “binds”.
